Reference: the supplement of paper PMC10727501
The other results are listed elsewhere or left out. This data set is noisy: repeats of one test often differ as much as different tests do.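 Free-swimming zebrafish larvae were scored for O-bend response probability to dark flashes (naive: first five; training: remaining flashes of four 60-flash blocks; test: later 60-flash block) and for turning toward alternating leftward/rightward LED motion (OMR). Six treated larvae were compared with sixty 0.1% DMSO controls; |SSMD|≥2 defined a hit.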

Tests used:
Details in all cases: 10 µM; pre-incubation: 30-90 min
[1] = system: Danio rerio larvae (5 dpf, TLF); test: OMR-Perf (SSMD vs DMSO vehicle); higher = higher than vehicle (e.g. higher dark-flash O-bend response probability, or better optomotor performance)
[2] = system: Danio rerio larvae (5 dpf, TLF); test: Prob-Test (SSMD vs DMSO vehicle); higher = higher than vehicle (e.g. higher dark-flash O-bend response probability, or better optomotor performance)
[3] = system: Danio rerio larvae (5 dpf, TLF); test: Prob-Naive (SSMD vs DMSO vehicle); higher = higher than vehicle (e.g. higher dark-flash O-bend response probability, or better optomotor performance)
[4] = system: Danio rerio larvae (5 dpf, TLF); test: Prob-Train (SSMD vs DMSO vehicle); higher = higher than vehicle (e.g. higher dark-flash O-bend response probability, or better optomotor performance)

Compound | OMR-Perf [1] | Prob-Test [2] | Prob-Naive [3] | Prob-Train [4]
Cc1cccc(-c2n[nH]cc2-c2ccc3ncccc3n2)n1 | -0.279 | -0.531 | -0.29 | 0.0618
C[C@@H](NCCc1ccc(O)cc1)[C@@H](O)c1ccc(O)cc1.Cl [Ritodrine HCl] | 0.123 | 0.486 | 0.394 | -0.123
O=c1c(-c2ccc(O)cc2)coc2cc(O)ccc12 [Daidzein] | 0.261 | -0.0977 | -0.0545 | -0.224
CC(C)(O)CC(=O)NCCn1ccc2ncnc(Nc3ccc(Oc4cccc(C(F)(F)F)c4)c(Cl)c3)c21 | -0.802 | 0.581 | -0.571 | -0.388
Cc1[nH]c(/C=C2/C(=O)Nc3ccc(S(=O)(=O)N(C)c4cccc(Cl)c4)cc32)c(C)c1C(=O)N1CCN(C)CC1 | 0.658 | -0.219 | -0.0643 | -0.558
CC(C)Cc1ccc(C(C)C(=O)O)cc1 (stereo not drawn) [Ibuprofen] | -0.725 | -0.944 | -0.484 | -1.74
Cl.O=C(O)Cc1cccc(OCCCN(Cc2cccc(C(F)(F)F)c2Cl)CC(c2ccccc2)c2ccccc2)c1 | 0.427 | 0.714 | 0.306 | -0.00657
CCN(CC)CCOC(=O)c1ccc(N)cc1.Cl [Procaine HCl] | -0.474 | -0.39 | -0.479 | -0.417
C[C@@H]1O[C@@H](Oc2c(-c3cc(O)c(O)c(O)c3)oc3cc(O)cc(O)c3c2=O)[C@@H](O)[C@H](O)[C@H]1O [Myricitrin] | -0.958 | 0.189 | 0.139 | -0.146
O=C([O-])C[C@H](O)C[C@H](O)C=Cc1c(C2CC2)nc2ccccc2c1-c1ccc(F)cc1.O=C([O-])C[C@H](O)C[C@H](O)C=Cc1c(C2CC2)nc2ccccc2c1-c1ccc(F)cc1.[Ca+2] [Pitavastatin Calcium] | -0.195 | -1.24 | -0.0365 | -0.807
Cc1cc2c(s1)Nc1ccccc1N=C2N1CCN(C)CC1 [Olanzapine] | -0.711 | -0.187 | -0.226 | -0.0421
C[C@@H](Oc1cc(-n2cnc3ccc(CN4CCN(C)CC4)cc32)sc1C(N)=O)c1ccccc1C(F)(F)F | -0.72 | -0.446 | -0.13 | -0.765
O=C(O)c1cccnc1Nc1cccc(C(F)(F)F)c1 [Niflumic acid] | -0.963 | -1.54 | -0.227 | -1.79
Cc1nc2n(c(=O)c1CCN1CCC(c3noc4cc(F)ccc34)CC1)CCCC2 [Risperidone] | -0.675 | -1.33 | -0.521 | -0.662
N#Cc1ccc2[nH]c(O)c(-c3ccc(CN4CCOCC4)cn3)c2c1 | 0.0942 | -0.482 | -0.607 | -0.422
Cc1cc(N2CCOCC2)ccc1Nc1nc(NC2CCCCC2)c2[nH]cnc2n1 | -0.0425 | -0.238 | -0.366 | -1.1
Cl.NC1CCN(c2c(F)cc3c(=O)c(C(=O)O)cn(C4CC4)c3c2Cl)C1 (stereo not drawn) [Clinafoxacin HCl] | -0.0682 | 0.111 | -0.0763 | 0.428
O.O=[Si]=O.O=[Si]=O.O=[Si]=O.O=[Si]=O.[O]=[Mg].[O]=[Mg].[O]=[Mg] | -0.402 | -0.671 | -0.378 | -0.305
COC(=O)[C@H](Cc1ccccc1)NC(=O)[C@@H](N)CC(=O)O [Aspartame] | -0.0179 | 0.282 | -0.286 | 0.325
COc1ccccc1N1CCN(CC(O)COc2cccc3ccccc23)CC1.Cl.Cl (stereo not drawn) [Naftopidil DiHCl] | -0.953 | -2.43 | -4.32 | -3.04
CC[C@H](CO)Nc1nc(NCc2ccccc2)c2ncn(C(C)C)c2n1 [Roscovitine (Seliciclib,CYC202)] | -0.337 | -0.288 | -0.471 | -0.0957
COc1ccc([C@@H]2CC(=O)c3c(O)cc(O)cc3O2)cc1O [Hesperetin] | -0.0313 | -0.382 | -0.599 | -0.382
NC(=O)c1cn(Cc2c(F)cccc2F)nn1 [Rufinamide] | 0.0693 | 0.565 | -0.199 | 0.00271
COc1ccc(F)c(F)c1C(=O)c1cnc(NC2CCN(S(C)(=O)=O)CC2)nc1N | -0.0185 | 0.991 | 0.289 | 1.04
O=c1ccc2ccccc2o1 [Coumarin] | 0.0321 | -0.369 | -0.202 | -0.44
O=C1C(=O)N(Cc2ccc(Cl)c(Cl)c2)c2ccccc21 [Apoptosis Activator 2] | 0.0373 | 0.182 | 0.489 | 0.129

A second format for part of the listing above.
Compound	OMR-Perf [1]	Prob-Test [2]	Prob-Naive [3]	Prob-Train [4]
O=c1c(-c2ccc(O)cc2)coc2cc(O)ccc12 [Daidzein]	0.261	-0.0977	-0.0545	-0.224
Cc1cc2c(s1)Nc1ccccc1N=C2N1CCN(C)CC1 [Olanzapine]	-0.711	-0.187	-0.226	-0.0421
Cc1cc(N2CCOCC2)ccc1Nc1nc(NC2CCCCC2)c2[nH]cnc2n1	-0.0425	-0.238	-0.366	-1.1
O=C1C(=O)N(Cc2ccc(Cl)c(Cl)c2)c2ccccc21 [Apoptosis Activator 2]	0.0373	0.182	0.489	0.129

Later entries:

Compound | OMR-Perf [1] | Prob-Test [2] | Prob-Naive [3] | Prob-Train [4]
CC(O)[C@H]1C(=O)N2C(C(=O)[O-])=C(SC3Cn4ncc[n+]4C3)[C@H](C)[C@H]12 (stereo partly drawn) [Biapenem] | 0.117 | -0.0321 | -0.0588 | -0.124
O=S(=O)([O-])CCS.[Na+] [Mesna] | -0.00985 | -0.506 | 0.454 | -0.256
Cc1cccc(Nc2ccncc2S(=O)(=O)NC(=O)NC(C)C)c1 [Torsemide] | -0.101 | -0.0798 | 0.471 | -0.0794
CCc1c2c(nc3ccc(O)cc13)-c1cc3c(c(=O)n1C2)COC(=O)[C@]3(O)CC | -0.622 | 0.386 | 0.0292 | -0.0267
COc1cc(OC)c2c(=O)[nH]c(-c3cc(C)c(OCCO)c(C)c3)nc2c1 | -0.979 | -0.229 | 0 | -0.161
OC(CC1c2ccccc2-c2cncn21)C1CCCCC1 (stereo not drawn) | 0.0305 | -0.306 | -0.112 | -0.412
C[C@@H]1O[C@@H](OC[C@H]2O[C@@H](Oc3c(-c4ccc(O)c(O)c4)oc4cc(O)cc(O)c4c3=O)[C@@H](O)[C@@H](O)[C@@H]2O)[C@@H](O)[C@H](O)[C@H]1O [Rutin] | -0.531 | 0.0947 | 0.516 | 0.0979
COc1cc(NC(=O)c2ccccn2)ccc1Cl | 0.23 | -0.627 | -1.06 | -1.32
Cn1cc(-c2ccc3nnc(C(F)(F)c4ccc5ncccc5c4)n3n2)cn1 | 0.229 | -0.751 | -0.285 | -0.596
CCN(CC)CCCC(C)Nc1nc(C)cc(Nc2ccc3nc(C)cc(N)c3c2)n1.Cl.Cl.Cl (stereo not drawn) | -0.164 | 0.19 | -0.162 | -0.537
CCCCNC(=O)NS(=O)(=O)c1ccc(C)cc1 [Tolbutamide] | -0.308 | 0.215 | 0.271 | 0.0398
O=C([C@@H](Cc1cccc(C(F)(F)F)c1)NS(=O)(=O)c1cc(F)c2c(c1)CCNC2)N1CCCC1 | 0.0775 | -0.395 | 0 | 0.0784
CCc1ccc(CCOc2ccc(CC3SC(=O)NC3=O)cc2)nc1 (stereo not drawn) [Pioglitazone] | -0.254 | -0.799 | -0.163 | -0.786
C=C1C[C@@]2(O)O[C@@]3(C[C@H]2C(C)C)[C@H](C)CC[C@@H]13 [Curcumol] | 0.295 | -0.816 | -0.673 | -1.05
CC[C@H]1OC(=O)[C@H](C)[C@@H](O[C@@H]2C[C@@](C)(OC)[C@H](O)[C@@H](C)O2)[C@H](C)[C@@H](O[C@H]2OC(C)C[C@@H](N(C)C)[C@H]2O)[C@@](C)(O)C[C@@H](C)C(=O)[C@H](C)[C@@H](O)[C@]1(C)O (stereo partly drawn) [Erythromycin] | -0.139 | 0.272 | 0.549 | 0.532
Nc1ccn([C@@H]2CS[C@H](CO)O2)c(=O)n1 [Lamivudine] | 0.106 | 0.189 | 0.096 | 0.409
O=C(CCCN1CCN(c2ccccn2)CC1)c1ccc(F)cc1 [Azaperone] | -0.694 | 0.981 | 0.0839 | 1.69
COC1=C2C[C@H](C)C[C@@H](OC)[C@H](O)[C@H](C)/C=C(\C)[C@H](OC(N)=O)[C@@H](OC)/C=C/C=C(\C)C(=O)NC(=CC1=O)C2=O [Geldanamycin] | 0.637 | 0.209 | 0.306 | -0.559
CC1(C)CCC(C)(C)c2cc(NC(=O)c3ccc(C(=O)O)cc3)ccc21 [Tamibarotene] | 0.561 | 0.87 | 0.134 | 0.691
Cc1c(OCC(F)(F)F)ccnc1CS(=O)c1nc2ccccc2[nH]1 (stereo not drawn) [Lansoprazole] | -0.503 | -0.313 | -0.414 | 0.178
N=C(N)Nc1nc(CSCCC(=N)NS(N)(=O)=O)cs1 [Famotidine] | -0.306 | 0.158 | 0.16 | 0.639
COc1ccc(-c2cc3c(C)nc(N)nc3n([C@H]3CC[C@H](OCCO)CC3)c2=O)cn1 | -0.975 | -1.42 | -0.489 | -1.78
CCCSc1nc(N[C@@H]2C[C@@H]2c2ccc(F)c(F)c2)c2nnn([C@@H]3C[C@H](OCCO)[C@H](O)[C@H]3O)c2n1 [Ticagrelor] | 0.401 | 0.0937 | -0.367 | -0.168
CC(=O)[C@@H]1CC[C@H]2[C@@H]3CC=C4C[C@@H](O)CC[C@]4(C)[C@@H]3CC[C@]12C [Pregnenolone] | 0.00809 | -1.53 | -0.161 | -1.76
COc1cc2c(cc1OC)CN(CCc1ccc(NC(=O)c3cc(OC)c(OC)cc3NC(=O)c3cnc4ccccc4c3)cc1)CC2 [Tariquidar] | 0.868 | 0.00375 | 0.0934 | 0.228
CC(C)(F)C[C@H](N[C@@H](c1ccc(-c2ccc(S(C)(=O)=O)cc2)cc1)C(F)(F)F)C(=O)NC1(C#N)CC1 [Odanacatib (MK-0822)] | 0.0965 | 0.251 | 0.449 | 0.605
